# Data taken from patent US20210309754A1 (JCR PHARMACEUTICALS, published 2021).
# No constants are given. Whether binding was seen depends on the method and setting. Some entries that bind do so weakly or less than the wild type.
# Key:
# [1] = target: TfR existing on the endothelium of blood vessels in the brain of cynomolgus monkeys (printed as hTfR) (cynomolgus monkey (Macaca fascicularis)); experiment: immunohistochemical staining of monkey brain after intravenous administration
# [2] = target: TfR existing on the endothelium of blood vessels in the brain of cynomolgus monkeys (printed as hTfR) (cynomolgus monkey (Macaca fascicularis)); experiment: immunohistochemical staining of monkey brain after intravenous administration (Example 8)
# [3] = target: recombinant monkey TfR (r monkey TfR: Sino Biological Inc.), cynomolgus monkey TfR extracellular region with N-terminal histidine tag (cynomolgus monkey (Macaca fascicularis)); experiment: BLI, Octet RED96
# [4] = target: recombinant human TfR (r human TfR: Sino Biological Inc.), extracellular region with N-terminal histidine tag (human) (UniProt P02786); experiment: BLI, Octet RED96
binding [1],binding [2],binding [3],binding [4],Binder
binds,binds,,,"anti-hTfR antibody No. 2 (antibody, V domains shown, Mouse monoclonal antibody from a hybridoma, purified on Protein G; also called mouse anti-hTfR antibody No. 2; antibody of Clone 2 line) VH: EVQLQESGAELVRPGVSVKISCKGSGYTFTDYVMHWVRQSHAKSLEWIGVISTYYGHGSYNQRFKGKATMTVDKSSSTAYLELVRLTSEDSAIYYCVRGGYGSSSLAGNFDVWGAGTTVTVSS VL: DIVLTQSPATLSVTPGDSVSLSCRASQSISNNLQWYQQKSHESPRLLIKYASQSISGIPSRFSGSGSGTDFTLSINSVETEDFGMYFCQQSNSWPRTFGAGTKLELKR"
,,binds,binds,"humanized anti-hTfR antibody No. 1 (antibody, human IgG1, kappa, V domains shown) VH: EVQLVESGGGLVQPGGSLRLSCAASGLTFSNYGMSWVRQAPGKGLELVANINTNGGSTYYPDSVKGRFTISRDNAKNSLYLQMNSLRAEDTAVYYCTNNRYDEDYWGQGTLVTVSS VL: DIQVTQSPSFLSASVGDRVTITCKASQDVNSAVAWFQQKPGKAPKLLIYWTSTRHTGVPDRFSGSGSGTVYTLTISSLQPEDFATYYCQQHYSTPRTFGGGTKVEIKR"
binds,binds,,,"anti-hTfR antibody No. 1 (antibody, V domains shown) VH: EVQLQESGGGLVQPGGSLKLSCAASGLTFSNYGMSWIRQTPDKRLELVANINTNGGSTYYPDSVKGRFTISRDNAKNTLYLQMNSLKSEDTAIYYCTNNRYDEDYWGQGTSVTVSS VL: DIVLTQSSKFMSTSVGDRVSITCKASQDVNSAVAWFQQKPGQSPKLLIYWTSTRHTGVPDRFTGSGSGTVYTLTISSVQAEDLALYYCQQHYSTPRTFGGGTKLEIKR"
